Laboratory results taken from PubChem BioAssay AID1508600 (Functional Genomics Laboratory (NCATS/FGL), 2020).
Among all 53,000 sequences or so, about 3,700 (7%) were called active.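 Rule for the calls: active = gene knockdowns whose robust z-score for IL-1 alpha signal is at least 2 or at most -2, so actives lie on both sides; inactive = the rest.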 The list shows a part of the results.

Assay: Components of the Cytosolic LPS Sensing Pathway: Gene Identification via Genome-wide siRNA Screen;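 note: robust z of the log signal after scaling to non-targeting control siRNA wells of the plate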
Settings: RAW264.7 macrophages, IL-1a HTRF, actives lie on both sides, screened at 100 nM (by protocol), cells primed 5 h with Pam3CSK4 first
Summary of the method: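 Read-out: IL-1a HTRF on supernatant, divided by plate negative-control median ×100, log-transformed and converted to robust z-score. Cells were RAW264.7 given 100 nM siRNA, Pam3CSK4-primed 5 hours, then LipidA-transfected 24 hour.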
In the case of CCCUGUAAGGUUGAUUGUGTT against Oog3, the z-score is reported as inactive: 0.535. In the case of GGAGGAAGUUGAACUAUUGTT against Brd3, the z-score is reported as inactive: 0.07. For GGUUCUUGGGCACCAUUAUTT against Olfr786, the z-score was inactive: 0.742. With GGACAUUUUAUAAAUGGUGTT against Dcaf4 the z-score was inactive: -1.36. In the case of GGUGGAGAAGCAGAUGCUUTT against Nek2, the z-score is reported as active: 2.25. With “GGGUAGGCAAAGUUUUCAATT against 1700029M20Rik” the z-score was active: 4.63. In the case of GGAACAAAGAUGUCAAACATT against Olfr466, the z-score is reported as inactive: -0.993. In the case of GGGCAUUUUUGAGAUGGUUTT against Syngr2, the z-score is reported as inactive: 0.19. For GGAAUCAAUAAAUGUCUACTT against Cyb561, the z-score was inactive: -1.35. In the case of GGUUCUCUGCCAGUUCUGUTT against Mid1, the z-score is reported as active: 3.32. In the case of GGAACAUUGAAAGGAUUAATT against Smc3, the z-score is reported as inactive: -1.9. In the case of GGCAAAAAUUACCUGUUGATT against Alms1, the z-score is reported as inactive: -0.783. For CCGUCACAAUAGUCUCUGATT against Abhd15, the z-score was inactive: 0.805. For GGAUGGUAGAGUUCCUUUGTT against Lin52, the z-score was inactive: 0.616. For GCAGGAGUUUAUCAGAGGATT against Prim2, the z-score was inactive: -1.64. In the case of GGGAAUUAACCCUAGUGCUTT against B4galt3, the z-score is reported as inactive: -0.33. For CGAUUAAAAAGGGACAUAUTT against Grid1, the z-score was inactive: 0.946. In the case of CGUAAGAAAAAUAGCACAUTT against Ccdc14, the z-score is reported as inactive: 1.31. For GGCCAACACUAACACAGACTT against Tmem268, the z-score was inactive: -0.357. With GGAGAAGAAUAGGAAUGCATT against Anpep the z-score was inactive: -1.78. For CCUAAUCUAGAGCAACACATT against Ankrd34c, the z-score was inactive: -1.67. In the case of GGCAAAAACUGCUGAUCUGTT against Tex9, the z-score is reported as inactive: 0.00236. In the case of GGGAAGAAACUGUGAUUUUTT against Cbfa2t3, the z-score is reported as inactive: 0.963. In the case of GGACAAGUGUCAGAGCUGUTT against Mrnip, the z-score is reported as inactive: -0.801. In the case of GGGUGCUUUUCUGAAAGUATT against Olfr1342, the z-score is reported as inactive: -0.911. In the case of CGCUAACUUCCAAGUGCCUTT against Tacstd2, the z-score is reported as inactive: 0.529. For CACUGCUGUAAUCCCUAUGTT against Olfr1002, the z-score was inactive: 0.4. With GGCCAACAAUUUGUCUGUCTT against Tg the z-score was inactive: -0.783. For GGUCUUCUUAGCUUUUUUUTT against Plppr1, the z-score was inactive: -0.713. With GGCCUUGUUUUUAAGUAAATT against Atp12a the z-score was inactive: -0.178. In the case of GUGGACUUUUAGCAAUCAGTT against Olfr98, the z-score is reported as inactive: -1.55. With GGUUGCUAGAAAAAUGAAGTT against Nipbl the z-score was inactive: -0.593. For CGAUUUCGCUGUUACUAAATT against Slc2a3, the z-score was inactive: 0.733. In the case of CGAGAGGUGAUCUUAGAUUTT against Qsox2, the z-score is reported as inactive: -0.369. With GCUGUACAAUAACAGUAUGTT against Gde1 the z-score was inactive: 1.06. With GGAAGACACAUUUUUCCAUTT against Serpinb9e the z-score was inactive: 0.733. With GGCUCCAACUGCUUUCAUCTT against Zswim9 the z-score was inactive: 0.0664. With GGAAGAUGUGGAAAAAGCGTT against Smarca2 the z-score was inactive: -0.916. In the case of GCGUAUAGGUGAUGUACAGTT against Smad3, the z-score is reported as active: 2.28. With CCUAAAUCUAUGAUGAAGATT against Cct3 the z-score was inactive: -0.861. For CGAGAAUCUGCCUCAAUUGTT against Kti12, the z-score was inactive: 1.24. In the case of UAUAAUACUUCCCUUGCUGTT against Sox15, the z-score is reported as inactive: 0.165. In the case of GGUCUGUACUUGUUUAGAATT against Vwa3b, the z-score is reported as inactive: 0.42. With GGCAUUACGUCAUGUACUATT against Tle5 the z-score was inactive: 0.282. For GCACUCAUUGCCAGGGUCATT against Pycard, the z-score was active: -2.54. For GCAGUUUUCGCUCUGGUCATT against Ppbp, the z-score was inactive: 0.807. In the case of GGAGUUAAAUAAACACUGATT against Rnf151, the z-score is reported as inactive: 0.468. In the case of “CCUAUCAAAGAUCAAUAGCTT against 2610507B11Rik”, the z-score is reported as inactive: 0.251. With GGACUGUCAUCUUCCUCAGTT against Ston2 the z-score was active: -2.97. For GCUCAGCUAGCAGAAAUUCTT against Nlrp2, the z-score was inactive: -1.76. With GGGAAGCAAAUCUAUACCCTT against Tnfrsf11a the z-score was inactive: -0.243. For GGUGACAAGGACGAGAUAATT against Synpo2, the z-score was inactive: -0.739. With GGUUGGCAGCGUGGUAACUTT against Pear1 the z-score was inactive: -1.61. With CUGGAUGCAUUAACUUCUUTT against Olfr1219 the z-score was inactive: 0.326. With GGUGUCUCCCUUUCUCCUUTT against Rpp14 the z-score was inactive: -1.43. In the case of GGCAGUAUCAAAGAAAUUGTT against Rps6ka3, the z-score is reported as active: 3.43. With “GGCUUUCGAAGGCAGAAGATT against 4930486L24Rik” the z-score was inactive: 0.822. In the case of GGUCUGUACUUUUCUAGUGTT against Olfr394, the z-score is reported as inactive: -0.374. For GCCUAUGAUCUGGUUAGACTT against Septin11, the z-score was inactive: -0.0526. In the case of GGAUAUGAAACACCAGAUCTT against Naip2, the z-score is reported as inactive: -1.89. For GGUGUUGGAUCAUGAUGUUTT against Nf2, the z-score was active: -2.14. With GGCGUGCGAUAACACGCAATT against Med18 the z-score was inactive: 1.05. With GGAGAAGGAGAGCUUCAUCTT against Mphosph6 the z-score was inactive: 1.05. With GCUAGAGAAGCUAGAAAAGTT against Ccdc12 the z-score was inactive: -1.1. With GCCUGAACAUCAAGAUCCUTT against Bpifb5 the z-score was inactive: 0.852. With GGAGACAGAAACUUAACCUTT against Gns the z-score was inactive: -1.24. For GGAAGGAGGAAAAGUAGGUTT against Peli1, the z-score was inactive: -0.00852. In the case of AGGCGGUUUUUUGUCUAUGTT against Serpina1e, the z-score is reported as inactive: 0.00845.
